No constants are given. Whether binding was seen depends on the method and setting. Some results given as binding are weak or reduced against the parent protein; the word gives no strength.
How the values were obtained:
Experiment in all cases: cell surface binding assay; transfected COS-7 cells incubated with 100 nM purified Fc-fusion protein in ECS (168 mM NaCl, 2.4 mM KCl, 20 mM HEPES pH 7.4, 10 mM D-glucose, 2 mM CaCl2, 1.3 mM MgCl2) with 100 μg/ml BSA, 1 h, room temperature; bound Fc immunostained with anti-human IgG and normalised to surface HA; only the binder purified
[1] = target: pDisplay-NRX2α LNS1 (aa 29-199) (mouse) (UniProt E9Q7X7)
[2] = target: HA-NRX1αS1(+) S2(+) S3(+) S4(+) (extracellularly HA-tagged neurexin1α) (UniProt Q9CS84)
[3] = target: HA-NRX2αS1(+) S2(+) S3(+) S4(+) (extracellularly HA-tagged neurexin2α) (mouse) (UniProt E9Q7X7)

Sequences of proteins named here, by UniProt entry; tags and fusion partners are left off. A change or cut given only in a name is not applied to a line headed by its entry. A line that says so, or that is headed by a name, gives the form on record, which may keep a tag or linker. Residues count along the entry.
UniProt E9Q7X7: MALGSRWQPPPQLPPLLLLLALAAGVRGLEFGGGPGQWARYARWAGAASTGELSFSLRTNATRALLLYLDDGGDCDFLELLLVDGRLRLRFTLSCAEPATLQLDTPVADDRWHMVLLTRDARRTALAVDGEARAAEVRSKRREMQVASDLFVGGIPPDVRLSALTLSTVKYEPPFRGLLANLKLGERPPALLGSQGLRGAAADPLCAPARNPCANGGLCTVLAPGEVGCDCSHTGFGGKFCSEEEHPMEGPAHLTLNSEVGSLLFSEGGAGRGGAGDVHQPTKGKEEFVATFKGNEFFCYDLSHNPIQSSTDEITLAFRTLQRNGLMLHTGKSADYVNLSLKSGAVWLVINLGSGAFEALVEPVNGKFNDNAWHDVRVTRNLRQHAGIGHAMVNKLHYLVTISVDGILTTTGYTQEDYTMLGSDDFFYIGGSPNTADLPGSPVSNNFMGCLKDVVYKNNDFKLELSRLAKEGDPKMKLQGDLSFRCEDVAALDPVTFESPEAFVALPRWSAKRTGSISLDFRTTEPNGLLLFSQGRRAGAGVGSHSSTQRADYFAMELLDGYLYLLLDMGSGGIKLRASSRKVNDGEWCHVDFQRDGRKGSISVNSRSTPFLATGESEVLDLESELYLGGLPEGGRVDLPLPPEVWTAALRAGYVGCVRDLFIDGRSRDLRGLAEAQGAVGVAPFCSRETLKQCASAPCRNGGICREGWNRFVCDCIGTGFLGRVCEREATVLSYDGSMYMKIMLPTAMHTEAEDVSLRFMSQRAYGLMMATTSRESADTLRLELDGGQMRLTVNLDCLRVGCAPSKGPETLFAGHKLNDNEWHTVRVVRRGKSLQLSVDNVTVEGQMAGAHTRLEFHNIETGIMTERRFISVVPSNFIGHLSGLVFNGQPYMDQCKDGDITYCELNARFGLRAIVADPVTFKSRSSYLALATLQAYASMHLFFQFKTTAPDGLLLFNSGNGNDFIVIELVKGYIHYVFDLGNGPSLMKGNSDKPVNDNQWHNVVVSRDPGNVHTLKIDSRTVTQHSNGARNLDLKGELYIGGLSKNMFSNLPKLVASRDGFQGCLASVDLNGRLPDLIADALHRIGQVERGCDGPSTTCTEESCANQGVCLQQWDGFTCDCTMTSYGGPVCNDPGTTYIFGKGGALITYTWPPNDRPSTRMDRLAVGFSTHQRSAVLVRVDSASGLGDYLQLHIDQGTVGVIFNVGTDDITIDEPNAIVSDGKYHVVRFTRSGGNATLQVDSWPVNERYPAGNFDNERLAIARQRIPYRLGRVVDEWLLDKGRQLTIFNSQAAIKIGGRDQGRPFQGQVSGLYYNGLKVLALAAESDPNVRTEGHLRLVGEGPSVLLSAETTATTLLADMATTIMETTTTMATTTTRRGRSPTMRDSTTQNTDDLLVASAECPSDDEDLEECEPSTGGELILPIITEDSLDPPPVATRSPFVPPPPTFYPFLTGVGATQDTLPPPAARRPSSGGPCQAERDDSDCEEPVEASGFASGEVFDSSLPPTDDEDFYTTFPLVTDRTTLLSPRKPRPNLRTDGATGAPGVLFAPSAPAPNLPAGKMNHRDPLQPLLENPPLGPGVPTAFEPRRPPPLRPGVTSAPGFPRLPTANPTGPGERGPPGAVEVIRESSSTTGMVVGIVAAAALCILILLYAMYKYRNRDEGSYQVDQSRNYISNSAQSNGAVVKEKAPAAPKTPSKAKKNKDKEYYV
HA-NRX2αS1(+) S2(+) S3(+) S4(+) (extracellularly HA-tagged neurexin2α): residues 29-1710 of E9Q7X7
pDisplay-NRX2α LNS1 (aa 29-199): residues 29-199 of E9Q7X7
UniProt Q9CS84, residues 31-1514: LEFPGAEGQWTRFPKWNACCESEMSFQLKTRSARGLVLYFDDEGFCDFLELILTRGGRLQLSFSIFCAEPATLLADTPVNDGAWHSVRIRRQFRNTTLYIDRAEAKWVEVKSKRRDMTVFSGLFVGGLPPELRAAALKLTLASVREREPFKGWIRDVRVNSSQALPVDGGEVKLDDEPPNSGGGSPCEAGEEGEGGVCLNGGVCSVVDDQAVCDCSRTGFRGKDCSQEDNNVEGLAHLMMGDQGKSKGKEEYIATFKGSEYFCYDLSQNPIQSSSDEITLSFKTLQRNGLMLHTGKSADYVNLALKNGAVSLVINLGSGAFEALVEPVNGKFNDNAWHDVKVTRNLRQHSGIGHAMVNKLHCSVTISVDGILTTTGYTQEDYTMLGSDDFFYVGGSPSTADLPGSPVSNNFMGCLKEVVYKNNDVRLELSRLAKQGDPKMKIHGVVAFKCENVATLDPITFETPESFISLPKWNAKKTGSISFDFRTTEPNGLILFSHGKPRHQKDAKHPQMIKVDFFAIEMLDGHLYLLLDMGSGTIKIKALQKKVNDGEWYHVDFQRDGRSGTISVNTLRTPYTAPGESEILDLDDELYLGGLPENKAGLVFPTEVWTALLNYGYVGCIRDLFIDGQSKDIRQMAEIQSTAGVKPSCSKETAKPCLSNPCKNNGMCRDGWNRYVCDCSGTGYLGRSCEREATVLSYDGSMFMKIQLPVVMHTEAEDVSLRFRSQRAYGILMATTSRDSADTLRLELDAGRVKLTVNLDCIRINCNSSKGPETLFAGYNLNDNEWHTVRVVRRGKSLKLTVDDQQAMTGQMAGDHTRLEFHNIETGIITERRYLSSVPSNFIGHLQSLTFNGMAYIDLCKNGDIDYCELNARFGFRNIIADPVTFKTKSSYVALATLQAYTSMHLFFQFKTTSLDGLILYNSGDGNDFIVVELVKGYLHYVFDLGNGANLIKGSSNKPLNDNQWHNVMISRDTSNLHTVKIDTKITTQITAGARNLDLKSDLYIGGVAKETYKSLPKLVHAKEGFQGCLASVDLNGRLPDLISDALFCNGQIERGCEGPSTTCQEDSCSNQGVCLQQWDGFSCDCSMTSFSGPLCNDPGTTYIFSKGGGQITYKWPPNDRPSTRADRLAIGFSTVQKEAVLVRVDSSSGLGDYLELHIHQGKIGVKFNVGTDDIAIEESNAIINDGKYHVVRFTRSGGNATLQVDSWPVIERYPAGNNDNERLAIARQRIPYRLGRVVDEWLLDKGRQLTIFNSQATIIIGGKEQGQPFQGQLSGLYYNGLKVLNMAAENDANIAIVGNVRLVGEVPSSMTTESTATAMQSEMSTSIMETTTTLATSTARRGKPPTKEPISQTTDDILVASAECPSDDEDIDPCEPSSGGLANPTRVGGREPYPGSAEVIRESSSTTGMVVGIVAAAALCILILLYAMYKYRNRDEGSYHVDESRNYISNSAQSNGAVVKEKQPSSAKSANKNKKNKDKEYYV
UniProt M0RAS4, residues 25-448: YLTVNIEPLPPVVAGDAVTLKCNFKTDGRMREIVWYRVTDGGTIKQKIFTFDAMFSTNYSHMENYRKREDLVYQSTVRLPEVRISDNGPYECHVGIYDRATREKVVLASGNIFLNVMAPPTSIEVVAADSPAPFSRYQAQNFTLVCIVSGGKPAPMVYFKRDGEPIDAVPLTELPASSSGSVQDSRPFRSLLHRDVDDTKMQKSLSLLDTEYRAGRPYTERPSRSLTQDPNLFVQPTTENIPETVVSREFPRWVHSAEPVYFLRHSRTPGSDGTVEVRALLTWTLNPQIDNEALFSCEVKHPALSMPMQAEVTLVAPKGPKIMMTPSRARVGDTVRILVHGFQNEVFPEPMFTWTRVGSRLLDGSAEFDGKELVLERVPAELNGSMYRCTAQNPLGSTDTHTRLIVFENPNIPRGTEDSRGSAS

## IgSF21-Fc (ectodomain of rat IgSF21 fused to the human immunoglobulin Fc region) (from UniProt M0RAS4 25-448) (Fc fusion)
[1]
  binding: binds
[2]
  binding: no binding (tested: 100 nM)
[3]
  binding: binds

— paper PMC5581337
